Test results from article doi:10.1101/2021.09.06.459192.
No constants are given. Whether binding was seen depends on the method and setting. Binding calls can cover weak binding; strength is not graded here. Tags and fused reporters may be left off the sequences shown.

By UniProt entry, the sequences of proteins in these tests, tags left out. Where a name states a change or a piece, a line headed by the entry shows the natural chain unless it says otherwise.
UniProt Q05022: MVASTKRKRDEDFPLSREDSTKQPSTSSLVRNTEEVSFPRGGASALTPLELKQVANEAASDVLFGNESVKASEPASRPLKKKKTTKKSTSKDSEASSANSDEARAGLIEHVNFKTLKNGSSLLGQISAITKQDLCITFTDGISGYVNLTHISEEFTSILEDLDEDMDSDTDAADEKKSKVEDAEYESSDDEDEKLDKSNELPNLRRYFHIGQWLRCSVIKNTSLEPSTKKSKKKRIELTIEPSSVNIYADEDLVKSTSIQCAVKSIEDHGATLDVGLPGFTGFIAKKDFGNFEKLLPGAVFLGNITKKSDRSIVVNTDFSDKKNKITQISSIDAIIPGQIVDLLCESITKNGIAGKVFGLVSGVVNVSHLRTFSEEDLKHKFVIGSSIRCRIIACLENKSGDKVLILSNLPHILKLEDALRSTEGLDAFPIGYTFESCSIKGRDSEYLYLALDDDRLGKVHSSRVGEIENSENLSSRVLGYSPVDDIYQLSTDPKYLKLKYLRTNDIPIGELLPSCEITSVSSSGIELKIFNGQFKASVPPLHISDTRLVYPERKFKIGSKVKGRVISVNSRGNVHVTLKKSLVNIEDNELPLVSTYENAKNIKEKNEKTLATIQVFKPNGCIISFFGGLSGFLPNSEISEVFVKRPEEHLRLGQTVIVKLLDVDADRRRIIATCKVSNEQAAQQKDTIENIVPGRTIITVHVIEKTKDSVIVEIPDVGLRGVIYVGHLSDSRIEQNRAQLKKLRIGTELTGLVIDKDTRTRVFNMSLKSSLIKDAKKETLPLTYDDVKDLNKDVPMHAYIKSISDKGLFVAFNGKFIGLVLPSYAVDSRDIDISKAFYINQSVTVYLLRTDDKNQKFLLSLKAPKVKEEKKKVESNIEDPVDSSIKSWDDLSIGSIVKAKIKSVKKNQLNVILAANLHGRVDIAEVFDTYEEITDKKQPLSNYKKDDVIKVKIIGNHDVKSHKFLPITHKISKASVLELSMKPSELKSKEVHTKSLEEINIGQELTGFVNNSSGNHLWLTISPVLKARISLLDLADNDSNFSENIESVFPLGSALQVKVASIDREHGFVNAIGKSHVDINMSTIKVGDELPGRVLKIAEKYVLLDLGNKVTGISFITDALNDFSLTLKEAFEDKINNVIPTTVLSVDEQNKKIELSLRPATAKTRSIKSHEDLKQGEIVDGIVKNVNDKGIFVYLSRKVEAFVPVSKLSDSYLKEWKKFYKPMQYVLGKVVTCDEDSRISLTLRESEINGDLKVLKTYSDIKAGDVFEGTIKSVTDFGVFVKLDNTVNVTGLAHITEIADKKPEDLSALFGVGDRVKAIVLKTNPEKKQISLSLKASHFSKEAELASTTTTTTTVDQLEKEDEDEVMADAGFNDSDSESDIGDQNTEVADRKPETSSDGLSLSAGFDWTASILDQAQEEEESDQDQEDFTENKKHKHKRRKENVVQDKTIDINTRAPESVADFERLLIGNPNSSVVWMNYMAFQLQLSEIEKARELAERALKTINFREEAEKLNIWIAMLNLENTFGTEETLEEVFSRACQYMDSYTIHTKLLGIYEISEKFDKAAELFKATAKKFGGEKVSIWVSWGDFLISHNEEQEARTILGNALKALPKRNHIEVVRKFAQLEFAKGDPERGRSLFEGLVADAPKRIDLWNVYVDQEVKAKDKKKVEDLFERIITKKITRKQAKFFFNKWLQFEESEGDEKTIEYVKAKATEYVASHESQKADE

Biological target: T1, MBP-Rrp36, recombinant (S. cerevisiae) (UniProt Q12481)
T1 sequence: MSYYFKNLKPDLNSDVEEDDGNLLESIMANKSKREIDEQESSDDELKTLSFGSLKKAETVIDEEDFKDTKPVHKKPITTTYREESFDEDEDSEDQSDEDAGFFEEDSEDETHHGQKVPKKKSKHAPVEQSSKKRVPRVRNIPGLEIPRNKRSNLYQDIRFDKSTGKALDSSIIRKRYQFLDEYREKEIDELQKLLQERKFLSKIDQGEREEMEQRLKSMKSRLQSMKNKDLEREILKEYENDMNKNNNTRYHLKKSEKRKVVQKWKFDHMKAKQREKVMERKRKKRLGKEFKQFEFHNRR
Assay: pull-down

binding | Substance
no binding (tested: 3 μM) | Rrp5_ΔS1 (Rrp5 lacking the first S1 domain), recombinant (S. cerevisiae) (domain or fragment)
binds | Rrp5_S1 (first S1 domain of Rrp5 alone), recombinant (from UniProt Q05022) (domain or fragment)
no binding (tested: 3 μM) | Rrp5_ΔS1-2 (Rrp5 lacking the first two S1 domains), recombinant (S. cerevisiae) (domain or fragment)
